In assay [1] the target is PP2A B56δ subunit (human (endogenous in HepG2/ADR)) (UniProt Q14738). The assay can be described thus: co-IP; HepG2/ADR cell lysate (RIPA buffer), about 3 mg supernatant with antibodies against MDR1 and B56δ overnight at 4 °C, protein G-Sepharose, immunoblot. A general note: Immunoblotting shows a protein as a band on a membrane.
Assay [2] concerns the target PP2A B56α subunit (human (endogenous in HepaRG)) (UniProt Q15172). Nature of the assay: co-IP; endogenous proteins in HepaRG cell lysate (RIPA buffer with protease and phosphatase inhibitors), about 3 mg supernatant with antibody against PP2A Cα or B56α overnight at 4 °C, protein G-Sepharose 2 h, immunoblot; cells treated with 20 μM BaP.
Assay [3] addresses PP2A Cα subunit (human (endogenous in HepaRG)) (UniProt P67775). The description is as above.

The chains behind the UniProt entries cited, without tags or fusion partners. Where a name states a change or a piece, a line headed by the entry shows the natural chain unless it says otherwise. Residues count along the entry.
UniProt Q14738: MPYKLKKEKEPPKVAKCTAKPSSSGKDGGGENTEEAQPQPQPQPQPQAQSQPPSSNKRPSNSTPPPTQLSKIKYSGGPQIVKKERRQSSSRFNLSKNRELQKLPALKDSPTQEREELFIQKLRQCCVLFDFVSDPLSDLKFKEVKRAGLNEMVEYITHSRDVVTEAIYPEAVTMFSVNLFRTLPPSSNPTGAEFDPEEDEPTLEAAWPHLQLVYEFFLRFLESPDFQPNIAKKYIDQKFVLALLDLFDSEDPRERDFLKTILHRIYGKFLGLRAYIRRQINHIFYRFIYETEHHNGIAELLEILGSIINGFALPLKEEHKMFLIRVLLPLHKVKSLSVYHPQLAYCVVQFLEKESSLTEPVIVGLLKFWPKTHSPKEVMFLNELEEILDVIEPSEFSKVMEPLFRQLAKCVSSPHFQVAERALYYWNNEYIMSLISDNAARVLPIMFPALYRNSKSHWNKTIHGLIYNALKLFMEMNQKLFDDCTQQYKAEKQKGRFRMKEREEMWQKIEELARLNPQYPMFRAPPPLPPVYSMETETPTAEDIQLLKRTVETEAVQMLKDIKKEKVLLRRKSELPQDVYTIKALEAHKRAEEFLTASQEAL
UniProt Q15172: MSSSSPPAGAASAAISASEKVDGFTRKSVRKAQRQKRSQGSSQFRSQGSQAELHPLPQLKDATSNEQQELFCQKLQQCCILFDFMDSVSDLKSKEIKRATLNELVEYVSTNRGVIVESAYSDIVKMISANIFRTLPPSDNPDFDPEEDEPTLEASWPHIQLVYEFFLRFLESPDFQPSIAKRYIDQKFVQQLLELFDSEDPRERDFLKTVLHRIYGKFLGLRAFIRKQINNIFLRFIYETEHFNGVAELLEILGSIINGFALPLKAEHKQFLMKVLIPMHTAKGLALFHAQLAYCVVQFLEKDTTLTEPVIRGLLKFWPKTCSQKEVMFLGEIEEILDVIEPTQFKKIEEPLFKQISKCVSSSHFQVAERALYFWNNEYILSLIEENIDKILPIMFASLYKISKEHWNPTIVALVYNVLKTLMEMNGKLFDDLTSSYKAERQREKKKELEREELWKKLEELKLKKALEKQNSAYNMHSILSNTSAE
UniProt P67775: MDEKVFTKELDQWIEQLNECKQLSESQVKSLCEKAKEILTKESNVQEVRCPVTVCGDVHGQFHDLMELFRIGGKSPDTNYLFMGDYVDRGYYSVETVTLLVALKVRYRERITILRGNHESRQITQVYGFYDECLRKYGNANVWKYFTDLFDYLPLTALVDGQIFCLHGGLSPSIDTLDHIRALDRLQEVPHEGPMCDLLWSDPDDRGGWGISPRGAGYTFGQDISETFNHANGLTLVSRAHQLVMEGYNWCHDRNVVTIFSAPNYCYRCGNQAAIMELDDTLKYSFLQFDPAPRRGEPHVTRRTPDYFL
UniProt P08183: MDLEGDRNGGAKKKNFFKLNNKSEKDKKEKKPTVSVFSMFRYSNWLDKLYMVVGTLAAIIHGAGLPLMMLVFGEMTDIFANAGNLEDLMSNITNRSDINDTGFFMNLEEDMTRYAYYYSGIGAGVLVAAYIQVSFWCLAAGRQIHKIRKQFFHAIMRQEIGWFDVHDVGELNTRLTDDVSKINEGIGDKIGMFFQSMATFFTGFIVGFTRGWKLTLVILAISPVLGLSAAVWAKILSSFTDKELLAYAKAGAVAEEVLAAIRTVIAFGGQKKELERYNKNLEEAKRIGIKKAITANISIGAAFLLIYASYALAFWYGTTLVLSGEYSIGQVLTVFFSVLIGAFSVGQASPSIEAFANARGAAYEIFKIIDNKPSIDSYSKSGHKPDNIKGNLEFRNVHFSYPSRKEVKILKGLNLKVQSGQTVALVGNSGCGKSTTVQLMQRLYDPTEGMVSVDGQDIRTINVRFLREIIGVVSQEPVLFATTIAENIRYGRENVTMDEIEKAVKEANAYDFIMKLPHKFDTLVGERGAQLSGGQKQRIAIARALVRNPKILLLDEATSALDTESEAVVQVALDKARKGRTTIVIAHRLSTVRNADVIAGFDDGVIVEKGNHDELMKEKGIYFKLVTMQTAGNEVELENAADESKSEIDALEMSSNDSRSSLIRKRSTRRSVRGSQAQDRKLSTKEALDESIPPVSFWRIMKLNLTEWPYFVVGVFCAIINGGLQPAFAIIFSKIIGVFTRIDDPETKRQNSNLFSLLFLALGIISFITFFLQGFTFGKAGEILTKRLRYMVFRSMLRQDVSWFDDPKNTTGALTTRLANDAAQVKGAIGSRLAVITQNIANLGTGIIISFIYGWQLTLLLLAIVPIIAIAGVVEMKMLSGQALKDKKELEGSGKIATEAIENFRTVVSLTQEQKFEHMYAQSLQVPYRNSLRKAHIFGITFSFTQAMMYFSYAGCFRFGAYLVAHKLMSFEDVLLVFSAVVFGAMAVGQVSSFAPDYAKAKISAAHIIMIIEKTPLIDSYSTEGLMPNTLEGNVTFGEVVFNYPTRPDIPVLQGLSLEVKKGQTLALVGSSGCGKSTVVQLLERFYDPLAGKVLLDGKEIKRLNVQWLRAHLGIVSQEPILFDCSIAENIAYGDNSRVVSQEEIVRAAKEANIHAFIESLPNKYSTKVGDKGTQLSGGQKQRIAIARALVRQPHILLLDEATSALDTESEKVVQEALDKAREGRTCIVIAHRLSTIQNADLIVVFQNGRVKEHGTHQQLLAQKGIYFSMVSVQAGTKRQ
UniProt P35869, residues 11-848: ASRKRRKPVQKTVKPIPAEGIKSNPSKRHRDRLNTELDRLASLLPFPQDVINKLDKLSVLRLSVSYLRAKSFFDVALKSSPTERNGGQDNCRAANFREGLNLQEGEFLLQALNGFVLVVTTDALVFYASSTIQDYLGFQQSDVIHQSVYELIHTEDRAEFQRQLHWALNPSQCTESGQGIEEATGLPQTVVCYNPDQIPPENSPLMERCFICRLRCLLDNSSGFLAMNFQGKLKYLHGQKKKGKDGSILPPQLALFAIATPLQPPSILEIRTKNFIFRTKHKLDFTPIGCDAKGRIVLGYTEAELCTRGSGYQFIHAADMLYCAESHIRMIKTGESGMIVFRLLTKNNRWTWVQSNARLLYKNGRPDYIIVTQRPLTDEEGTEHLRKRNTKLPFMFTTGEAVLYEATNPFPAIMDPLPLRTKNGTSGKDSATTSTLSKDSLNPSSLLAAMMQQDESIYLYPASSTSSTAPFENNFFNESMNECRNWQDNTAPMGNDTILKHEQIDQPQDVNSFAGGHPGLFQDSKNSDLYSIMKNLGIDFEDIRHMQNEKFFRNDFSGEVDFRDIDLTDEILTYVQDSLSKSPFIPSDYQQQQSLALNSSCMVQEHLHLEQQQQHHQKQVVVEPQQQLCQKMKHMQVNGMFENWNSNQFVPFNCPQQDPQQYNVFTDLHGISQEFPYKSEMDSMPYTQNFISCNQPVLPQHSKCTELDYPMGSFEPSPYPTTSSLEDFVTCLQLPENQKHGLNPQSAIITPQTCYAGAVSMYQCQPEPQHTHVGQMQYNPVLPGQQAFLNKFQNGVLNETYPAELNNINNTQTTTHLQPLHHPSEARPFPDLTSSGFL

The source of these data is paper PMC9118923.

These are yes or no findings as the source states them, for the method shown. Binding seen in cells or lysates may run through a third protein. Some binding calls cover weakened binding; strength is not graded here.

Regarding “MDR1 (encoded by multi-drug resistance gene 1), human (from UniProt P08183 1-1280)”, the binding result in assay [1] was “binds”. As for “aryl hydrocarbon receptor (from UniProt P35869 11-848)”, the binding entry in assay [2] and in assay [3] was “binds” each time.
